“And” between values parts separate entries of the source, which are not always exact repeats. Equal values may be shown once. Square brackets hold non-standard residues; d marks the D form. * marks the point of attachment. 2Nal = N[C@@H](Cc1ccc2ccccc2c1)C(=O)O; Fmoc = O=C(OCC1c2ccccc2-c2ccccc21)*; 3Pal = N[C@@H](Cc1cccnc1)C(=O)O; αMeK = C[C@](N)(CCCCN)C(=O)O; Cbz = O=C(OCc1ccccc1)*; Boc = CC(C)(C)OC(=O)*; OtBu = CC(C)(C)O*; Sar = CNCC(=O)O
Test: general procedure: solution-phase peptide synthesis; EDCI/ethyl cyanoglyoxylate-2-oxime; EDCI/HOAt; DIC/Oxyma B; PyAOP/DIPEA
Settings: for final HPLC purity / crude HPLC purity: UPLC
[1] = late stage modification step, one disulfide bridge, sequence written open

Q: For “H-2Nal-Gly(THP)-Glu(tBu)-Asn-3-3Pal-Sarc-NH2”, which step yield (late stage modification step) is on record?
A: 93%

Q: And the “final HPLC purity” value (late stage modification step)?
A: 93.5%

Q: Which step yield (late stage modification step) does the source give for H-E(OtBu)N[3Pal][Sar]-NH2 here?
A: 93%

Q: What about the “final HPLC purity” value (late stage modification step) of the same substance?
A: 96%

Q: Which results are given for “Ac-Pen-Asn-Thr-Trp(7Me)-Lys(Ac)-Pen-Tyr(2-ea)-2-Nal2Nal-Gly(THP)-Glu-Asn-3-Pal3Pal-Sarc-NH2”?
A: final HPLC purity [1]: 95%; step yield [1]: 89%

Q: For “Ac-Pen(Trt)-Asn-Thr(tBu)-Trp(7Me)-Lys(Ac)-Pen(acm)-Tyr(2-Boc-ea)-2Nal-αMe-Lys(Boc)-Lys(Ac)-Asn-D-Leu-NH2 (S—S, 1-6)”, which step yield (coupling step) is on record?
A: 100%

Q: What about the “crude HPLC purity” value (coupling step) of the same substance?
A: 93.3%

Q: With “Ac-Pen-Asn-Thr-Trp(7Me)-Lys(Ac)-Pen-Tyr(2-ea)-2Nal-Gly(THP)-Glu-Asn-3Pal-Sarc-NH2” as the substance, how does the “final HPLC purity” value [1] read?
A: 97.8% UPLC purity

Q: What about the step yield [1] of the same substance?
A: 84.4% yield

Q: For Fmoc-[2Nal][αMeK](Boc)K(Ac)N[dL]-NH2, which step yield (coupling step) is on record?
A: Yield 77%

Q: With “Ac-Pen-Asn-Thr(tBu)-Trp(7Me)-Lys(Ac)-Pen-Tyr(2-Boc-ea)-2Nal-Gly(THP)-Glu(tBu)-Asn-3Pal-Sarc-NH2” as the substance, how does the “final HPLC purity” value (coupling step, run 1) read?
A: 99.1% UPLC purity and 99.3% UPLC purity

Q: What about the step yield (coupling step, run 1) of the same substance?
A: 37.9% yield and 51.4% yield

Q: With H-[2Nal][αMeK](Boc)K(Ac)N[dL]-NH2 as the substance, how does the step yield (coupling step) read?
A: Yield 96%

Q: Which results are given for Cbz-Glu(tBu)-Asn-3Pal-Sarc-NH2?
A: step yield (coupling step): 77.5% yield; final HPLC purity (coupling step): 100% UPLC purity

Q: What does the source list for “Fmoc-Gln(Trt)-Thr(tBu)-Trp-Gln(Trt)-Cys-OMe-((S)-4-Abu-D-Arg(Pbf)-Ac)-OAll”?
A: step yield (coupling step): 101.4%; crude HPLC purity (coupling step): 81.5%

Q: Which “final HPLC purity” value (coupling step) does the source give for “Ac-Pen(Trt)-Asn-Thr(tBu)-Trp(7Me)-Lys(Ac)-Pen(Acm)-Tyr(2-Boc-ea)-2Nal-Gly(THP)-Glu(tBu)-Asn-3Pal-Sarc-NH2” here?
A: 92%

Q: What about the step yield (coupling step, assay corrected) of the same substance?
A: 86%

Q: With “Fmoc-Gln(Trt)-Thr(tBu)-Trp-Gln(Trt)-Cys-OMe-((S)-4-Abu-D-Arg(Pbf)-Ac)—OH” as the substance, how does the step yield (late stage modification step) read?
A: 97.2%

Q: And the “crude HPLC purity” value (late stage modification step)?
A: 84.6%

Q: For “H-2Nal-Gly(THP)-Glu(tBu)-Asn-3Pal-Sarc-NH2”, which step yield (late stage modification step) is on record?
A: 99.3% yield

Q: And the “crude HPLC purity” value (late stage modification step)?
A: 99.2% HPLC purity

Q: What does the source list for H-Glu(tBu)-Asn-3Pal-Sarc-NH2?
A: step yield (late stage modification step): 94.4% yield; crude HPLC purity (late stage modification step): 98.0% UPLC purity

Q: For “Ac-Pen-Asn-Thr-Trp(7Me)-Lys(Ac)-Pen-Tyr(2-ea)-2Nal-αMe-Lys-Lys(Ac)-Asn-D-Leu-NH2 (S—S, 1-6)”, which “crude HPLC purity” value (late stage modification step) is on record?
A: 92.3%

Q: What about the step yield (purification step, HCl salt) of the same substance?
A: 78.8%

Q: What about the “final HPLC purity” value (purification step, HCl salt) of the same substance?
A: 95.8%

Q: And the “final HPLC purity” value (purification step, acetate)?
A: 96.9%

Q: What about the step yield (purification step, acetate) of the same substance?
A: 98.0%

Q: Which results are given for Cbz-E(OtBu)N[3Pal][Sar]-NH2?
A: step yield (coupling step): 71%; crude HPLC purity (coupling step): 98%; final HPLC purity (coupling step): 99%; step yield (coupling step, overall): 55%
